Source: PubChem BioAssay AID272 (DTP/NCI, 2004)
“And” between values parts separate entries of the source, which are not always exact repeats. Identical values can stand only once. Results filed as inconclusive are left out.

System: Lewis lung carcinoma i.m., BDF1 mice, T/C %
Assay: NCI In Vivo Anticancer Drug Screen. Data for tumor model Lewis Lung Carcinoma (intramuscular) in B6D2F1 (BDF1) mice
Conditions: endpoint: median survival time, schedule: Q01DX011 (ip), vehicle: water, higher = longer survival
Description: The antitumor activity of compounds was measured in mice bearing transplantable tumors. Survival or tumor size were measured and the results are expressed as the measurement made in the treated group (T) divided by the measurement made in the vehicle treated control group (C). The tumor model used in this assay is Lewis Lung Carcinoma (intramuscular) in B6D2F1 (BDF1) mice

With `COc1cc2c(c(OC)c1OC)-c1ccc(OC)c(=O)cc1[C@@H](N)CC2` the T/C (dose: 0.6 mg/kg/injection) was 101 % of control and 109 % of control and the T/C (dose: 1.2 mg/kg/injection) was 105 % of control and 115 % of control.
